No constants are given. Whether binding was seen depends on the method and setting. Binding seen in cells or lysates may run through a third protein. A result given as binding can be weak or reduced; the word gives no strength.
Molecular target: FLAG-MORFN (residues 1–716 of MORF) (human) (UniProt Q8WYB5)
Test: co-IP; FLAG-MORFN co-transfected with HA-BRPF1, HA-MEAF6 and HA-ING5 in 293T cells; lysis at 450 mM NaCl, reduced to 225 mM; anti-FLAG M2 beads 2 h at 4 °C, elution with 3× FLAG peptide

Sequences of proteins named here, by UniProt entry; tags and fusion partners are left off. A change or cut given only in a name is not applied to a line headed by its entry.
UniProt Q8WYB5: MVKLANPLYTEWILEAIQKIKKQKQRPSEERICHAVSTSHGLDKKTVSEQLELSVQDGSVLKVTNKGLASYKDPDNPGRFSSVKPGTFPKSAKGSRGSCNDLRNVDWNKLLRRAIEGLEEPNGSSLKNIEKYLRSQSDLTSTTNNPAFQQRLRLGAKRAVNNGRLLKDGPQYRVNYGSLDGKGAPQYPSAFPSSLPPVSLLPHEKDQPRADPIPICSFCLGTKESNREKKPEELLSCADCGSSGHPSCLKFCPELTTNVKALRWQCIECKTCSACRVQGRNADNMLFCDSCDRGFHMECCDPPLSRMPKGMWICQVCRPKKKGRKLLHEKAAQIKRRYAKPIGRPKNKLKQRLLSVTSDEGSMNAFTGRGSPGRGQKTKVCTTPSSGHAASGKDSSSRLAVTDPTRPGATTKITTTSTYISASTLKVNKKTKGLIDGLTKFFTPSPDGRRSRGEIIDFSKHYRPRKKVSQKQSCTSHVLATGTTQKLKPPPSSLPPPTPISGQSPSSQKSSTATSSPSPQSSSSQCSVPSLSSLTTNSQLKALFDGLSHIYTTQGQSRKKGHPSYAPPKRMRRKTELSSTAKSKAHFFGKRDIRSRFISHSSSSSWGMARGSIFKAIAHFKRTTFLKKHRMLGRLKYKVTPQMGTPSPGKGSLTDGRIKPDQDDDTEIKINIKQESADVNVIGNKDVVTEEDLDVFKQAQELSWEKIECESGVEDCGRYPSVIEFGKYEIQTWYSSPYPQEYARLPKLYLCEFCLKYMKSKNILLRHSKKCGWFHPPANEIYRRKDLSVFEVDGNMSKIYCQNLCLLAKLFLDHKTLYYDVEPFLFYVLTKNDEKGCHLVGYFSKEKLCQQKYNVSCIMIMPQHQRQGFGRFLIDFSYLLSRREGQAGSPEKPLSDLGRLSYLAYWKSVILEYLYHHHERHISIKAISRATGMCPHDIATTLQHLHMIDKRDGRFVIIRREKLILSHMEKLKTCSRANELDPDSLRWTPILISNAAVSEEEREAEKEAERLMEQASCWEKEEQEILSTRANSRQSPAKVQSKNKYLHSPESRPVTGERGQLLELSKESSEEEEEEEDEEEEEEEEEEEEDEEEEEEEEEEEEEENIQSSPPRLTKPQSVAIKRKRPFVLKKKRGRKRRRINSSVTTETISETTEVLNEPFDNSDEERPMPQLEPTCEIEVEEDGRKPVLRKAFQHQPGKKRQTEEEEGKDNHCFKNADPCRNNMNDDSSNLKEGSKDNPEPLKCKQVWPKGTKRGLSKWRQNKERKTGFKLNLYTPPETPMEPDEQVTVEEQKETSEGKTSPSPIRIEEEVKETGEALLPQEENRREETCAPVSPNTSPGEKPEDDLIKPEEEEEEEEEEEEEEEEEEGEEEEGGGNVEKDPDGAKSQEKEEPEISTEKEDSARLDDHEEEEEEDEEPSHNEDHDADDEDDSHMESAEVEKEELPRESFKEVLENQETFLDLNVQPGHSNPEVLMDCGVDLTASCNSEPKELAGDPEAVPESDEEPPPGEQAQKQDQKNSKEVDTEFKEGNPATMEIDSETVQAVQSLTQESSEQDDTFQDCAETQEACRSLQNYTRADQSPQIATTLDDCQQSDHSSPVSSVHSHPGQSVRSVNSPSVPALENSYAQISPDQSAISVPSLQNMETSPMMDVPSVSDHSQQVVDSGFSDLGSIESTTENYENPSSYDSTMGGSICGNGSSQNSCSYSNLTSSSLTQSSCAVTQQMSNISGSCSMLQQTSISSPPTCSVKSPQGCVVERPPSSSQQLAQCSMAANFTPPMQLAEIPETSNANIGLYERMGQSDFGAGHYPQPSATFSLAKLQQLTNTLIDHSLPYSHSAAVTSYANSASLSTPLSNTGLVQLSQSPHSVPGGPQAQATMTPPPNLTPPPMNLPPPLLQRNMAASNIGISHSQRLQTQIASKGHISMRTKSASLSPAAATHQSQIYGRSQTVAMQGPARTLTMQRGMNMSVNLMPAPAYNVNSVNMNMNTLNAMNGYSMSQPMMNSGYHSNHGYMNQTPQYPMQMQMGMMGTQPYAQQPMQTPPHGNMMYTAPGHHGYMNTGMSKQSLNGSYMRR
UniProt P55201: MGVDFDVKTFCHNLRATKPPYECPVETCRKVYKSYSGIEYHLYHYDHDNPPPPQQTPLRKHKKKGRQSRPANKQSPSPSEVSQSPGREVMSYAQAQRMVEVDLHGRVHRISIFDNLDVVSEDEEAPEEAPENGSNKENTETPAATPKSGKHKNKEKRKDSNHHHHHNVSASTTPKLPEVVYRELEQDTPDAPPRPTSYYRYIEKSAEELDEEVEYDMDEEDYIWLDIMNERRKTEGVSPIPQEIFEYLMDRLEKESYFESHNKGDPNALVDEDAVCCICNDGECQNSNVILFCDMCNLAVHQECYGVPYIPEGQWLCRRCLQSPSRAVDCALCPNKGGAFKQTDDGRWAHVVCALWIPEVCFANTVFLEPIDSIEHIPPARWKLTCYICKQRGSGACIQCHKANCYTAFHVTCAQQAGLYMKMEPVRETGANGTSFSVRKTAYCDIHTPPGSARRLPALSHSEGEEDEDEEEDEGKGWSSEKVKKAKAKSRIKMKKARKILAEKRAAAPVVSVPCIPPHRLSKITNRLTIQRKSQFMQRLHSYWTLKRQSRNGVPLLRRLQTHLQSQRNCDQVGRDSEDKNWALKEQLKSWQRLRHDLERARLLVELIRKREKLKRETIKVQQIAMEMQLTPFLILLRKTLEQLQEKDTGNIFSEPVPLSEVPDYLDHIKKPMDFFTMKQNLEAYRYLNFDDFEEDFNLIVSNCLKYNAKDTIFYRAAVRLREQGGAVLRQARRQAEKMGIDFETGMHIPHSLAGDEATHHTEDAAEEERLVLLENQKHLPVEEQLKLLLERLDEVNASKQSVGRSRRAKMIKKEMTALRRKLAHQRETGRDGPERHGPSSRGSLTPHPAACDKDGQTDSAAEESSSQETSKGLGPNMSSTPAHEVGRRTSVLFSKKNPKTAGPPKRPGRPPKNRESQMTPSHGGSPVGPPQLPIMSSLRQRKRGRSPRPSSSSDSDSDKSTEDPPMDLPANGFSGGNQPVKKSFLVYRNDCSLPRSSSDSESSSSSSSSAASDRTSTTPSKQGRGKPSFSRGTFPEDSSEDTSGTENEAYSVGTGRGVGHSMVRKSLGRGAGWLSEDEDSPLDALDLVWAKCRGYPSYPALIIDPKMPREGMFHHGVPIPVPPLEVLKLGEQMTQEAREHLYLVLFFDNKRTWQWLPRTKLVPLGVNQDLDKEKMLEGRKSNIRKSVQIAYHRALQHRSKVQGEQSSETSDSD
UniProt Q8WYH8: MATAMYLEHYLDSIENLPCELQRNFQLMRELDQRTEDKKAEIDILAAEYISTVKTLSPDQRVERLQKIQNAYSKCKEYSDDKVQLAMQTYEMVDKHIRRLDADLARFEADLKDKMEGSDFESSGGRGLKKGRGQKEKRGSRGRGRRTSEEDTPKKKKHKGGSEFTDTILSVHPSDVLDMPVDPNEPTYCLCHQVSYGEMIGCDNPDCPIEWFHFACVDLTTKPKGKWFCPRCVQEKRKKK

Row | binding | Substance
1 | binds | HA-BRPF1 (from UniProt P55201 1-1214)
2 | binds | HA-ING5 (from UniProt Q8WYH8 1-240)

From paper PMC6797804, “Histone H3K23-specific acetylation by MORF is coupled to H3K14 acylation” (Nature Communications, 2019)
